From US6706766 come the findings set out here.

Sequences of proteins named here, by UniProt entry; tags and fusion partners are left off. Residues count along the entry.
UniProt Q07817, residues 1-209: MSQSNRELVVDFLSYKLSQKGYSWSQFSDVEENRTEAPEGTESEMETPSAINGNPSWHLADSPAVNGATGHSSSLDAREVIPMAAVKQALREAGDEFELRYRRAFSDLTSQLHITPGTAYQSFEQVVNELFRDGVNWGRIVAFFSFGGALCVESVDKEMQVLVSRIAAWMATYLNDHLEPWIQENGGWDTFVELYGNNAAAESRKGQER

In the test the target is ^15N-labeled Bcl-xL (UniProt Q07817). The test can be described thus: NMR titration, 15N/1H HSQC.

These are yes or no findings as the source states them, for the method shown. Some entries that bind do so weakly or less than the wild type.

As for KGGGQVGRQLAIIGDDINR [Bak BH3 peptide (unlabeled)], the binding entry is “binds”.
